PubChem BioAssay AID1259308 | NCATS | 2017
The whole screen tested about 59,000 reagents; shown is an unselected part. Of all reagents, about 1,510 (2.6%) are marked active. 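Calls use total luciferase alone and ignore viability, so some active siRNAs may act by altering cell number.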 Reagents against one gene are numbered here. Not all columns of the deposit are shown.

Assay: 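Candidate targets for better recombinant protein yield in mammalian cells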 (primary screen)
Cell system: human HEK293 embryonic kidney cells stably expressing firefly luciferase (HEK-CMV-Luc2-Hygro)
Knock-down reagent: single siRNA against human genes, 0.8 pmol siRNA per well
Timing: 72 h
Measured: 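Luciferase light (ONE-Glo) measured on one replicate plate set and viability (CellTiter-Glo) on the other, scaled to a negative control siRNA, with robust z-scores and luciferase per cell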
Reading the numbers: total luciferase, z-score: higher = more reporter protein produced
Active means: 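Active when the median/MAD z-score for overall luciferase is greater than 3; a gene was taken forward for validation with new siRNAs if at least two of its three siRNAs passed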
Meaning of the calls: active = raised luciferase; inactive = no rise

SPTBN5 (GeneID 51332) #1
- total luciferase, z-score: -0.0389
- activity call: inactive

SPTBN5 (GeneID 51332) #2
- total luciferase, z-score: 1.9
- activity call: inactive

SPTBN5 (GeneID 51332) #3
- total luciferase, z-score: 1.42
- activity call: inactive

LOC100289495 (GeneID 100289495) #1
- total luciferase, z-score: -0.0884
- activity call: inactive

LOC100289495 (GeneID 100289495) #2
- total luciferase, z-score: 2.94
- activity call: inactive

LOC100289495 (GeneID 100289495) #3
- total luciferase, z-score: -0.219
- activity call: inactive

PKN1 (GeneID 5585) #1
- total luciferase, z-score: -2.45
- activity call: inactive

PKN1 (GeneID 5585) #2
- total luciferase, z-score: 1.1
- activity call: inactive

PKN1 (GeneID 5585) #3
- total luciferase, z-score: -0.0668
- activity call: inactive

ARL4D (GeneID 379) #1
- total luciferase, z-score: 1.61
- activity call: inactive

ARL4D (GeneID 379) #2
- total luciferase, z-score: -0.298
- activity call: inactive

ARL4D (GeneID 379) #3
- total luciferase, z-score: 0.346
- activity call: inactive

DIXDC1 (GeneID 85458) #1
- total luciferase, z-score: -0.735
- activity call: inactive

DIXDC1 (GeneID 85458) #2
- total luciferase, z-score: 2.65
- activity call: inactive

DIXDC1 (GeneID 85458) #3
- total luciferase, z-score: -1.54
- activity call: inactive

ANTXR1 (GeneID 84168) #1
- total luciferase, z-score: -1.44
- activity call: inactive

ANTXR1 (GeneID 84168) #2
- total luciferase, z-score: -0.557
- activity call: inactive

ANTXR1 (GeneID 84168) #3
- total luciferase, z-score: -0.227
- activity call: inactive

RPS13 (GeneID 6207) #1
- total luciferase, z-score: -2.94
- activity call: inactive

RPS13 (GeneID 6207) #2
- total luciferase, z-score: -2.66
- activity call: inactive

RPS13 (GeneID 6207) #3
- total luciferase, z-score: -0.967
- activity call: inactive
